Experimental data: patent US6399580B1, “Methods and compositions for stimulating tissue growth and epithelial moisturization” (The Regents of the University of California, priority 1994, dated 2002)

Tested on: hairless mouse skin
Assay: Electron microscopy of treated mouse skin
Format: in vivo
Conditions: BrCBE-treated
Description: Hairless mice were treated with BrCBE as described in Example 10. Tissue samples from hairless mouse skin were fixed first in glutaraldehyde and then post-fixed in 0.2% ruthenium tetroxide prior to plastic embedding, ultrathin sectioning, and examination in a Zeiss 10A electron microscope (Hou et al. (1991) J. Invest. Dermatol. 96:215-223).

OC1C(O)C(Br)C2OC2C1O (centres unmarked) [BrCBE, bromoconduritol-B-epoxide]
membrane structures in stratum corneum intercellular spaces (FIG. 16): abnormal (immature) membrane structures | lamellar bodies (FIG. 16D): completely normal
